# Record: PubChem BioAssay AID1259298 (Sanger Institute, 2017)
# Test: 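Kinase knock-downs that cut colorectal cancer cell viability or act with targeted drugs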 (primary screen)
# System: HT55 human colorectal cancer cell line
# Reagents: siRNA pool against human genes
# Challenge: anchor drug BYL719 1 µM, cetuximab 5 µg/ml or trametinib 10 nM, or DMSO vehicle alone
# Measurement: 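Replicate-averaged viability versus wells of non-targeting pool; knock-down-only robust z-score; per-drug synergy score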
# Scale: robust z-score, knock-down alone: higher = more cells remaining; low means essential gene; viability vs control pool, no drug: higher = more viable cells
# Rule for the call: 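Essential when the robust z-score for knock-down alone with DMSO is below -3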
# Calls: active = essential (knock-down alone); inactive = no change alone
# In all, the deposit lists 794 reagents; shown is a random part of them. Over the whole deposit, 20 (2.5%) are marked active. 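Calls rest only on the knock-down-alone score; drug synergy scores played no part in them.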 Unmarked entries are inactive. Viability is capped at 1. Not all columns of the deposit are shown. Not given: the amount of reagent, the time to read-out.
gene knocked down,"robust z-score, knock-down alone","viability vs control pool, no drug (fraction)"
PHKG1 (GeneID 5260),0.58,1
MYLK3 (GeneID 91807),-1.43,0.843
MAP2K2 (GeneID 5605),-0.427,0.921
CHUK (GeneID 1147),0.58,1
MAPKAPK5 (GeneID 8550),0.216,0.972
MASTL (GeneID 84930),0.58,1
ATM (GeneID 472),0.197,0.97
CDK5R2 (GeneID 8941),0.58,1
PIK3R2 (GeneID 5296),0.58,1
PRPS1L1 (GeneID 221823),0.185,0.969
TGFBR2 (GeneID 7048),-0.0585,0.95
PCK2 (GeneID 5106),0.58,1
GRK3 (GeneID 157),0.58,1
RELA (GeneID 5970),0.442,0.989
STK3 (GeneID 6788),0.58,1
MATK (GeneID 4145),-0.752,0.896
AMHR2 (GeneID 269),-1.29,0.854
MELK (GeneID 9833),0.58,1
CDC42BPB (GeneID 9578),0.58,1
DGKD (GeneID 8527),0.58,1
MUSK (GeneID 4593),-0.59,0.909
FES (GeneID 2242),-0.908,0.884
NTN4 (GeneID 59277),-0.846,0.889
RPS6KA1 (GeneID 6195),0.58,1
ALK (GeneID 238),0.559,0.998
BCOR (GeneID 54880),-1.56,0.832
FBXW7 (GeneID 55294),0.58,1
NF1 (GeneID 4763),0.58,1
PRKACG (GeneID 5568),0.58,1
CSNK1A1 (GeneID 1452),0.58,1
TNK1 (GeneID 8711),0.58,1
CTNNB1 (GeneID 1499),-1.4,0.845
PRKCQ (GeneID 5588),-0.589,0.909
CDK11B (GeneID 984),-3.14 (active),0.709
MGA (GeneID 23269),-1.56,0.832
PRKACB (GeneID 5567),0.58,1
DLG4 (GeneID 1742),0.58,1
GRK1 (GeneID 6011),0.58,1
LYN (GeneID 4067),0.58,1
CDKN1A (GeneID 1026),0.58,1
DDR2 (GeneID 4921),0.58,1
PGK1 (GeneID 5230),0.58,1
CDK16 (GeneID 5127),0.58,1
AMER1 (GeneID 139285),0.488,0.993
TAF1L (GeneID 138474),0.58,1
ITPKC (GeneID 80271),0.0816,0.961
CDKL4 (GeneID 344387),0.448,0.99
MST1R (GeneID 4486),-0.896,0.885
ITPKB (GeneID 3707),0.58,1
EPHB3 (GeneID 2049),-0.771,0.894

Entries above with an active call:
gene knocked down,"robust z-score, knock-down alone","viability vs control pool, no drug (fraction)"
CDK11B (GeneID 984),-3.14 (active),0.709
